The list does not hold the whole screen: it is rich in T/C values a quarter to a half above the control, in often repeated tests (any T/C) and in doses without a T/C. Further doses and runs are listed elsewhere. T/C gives the treated animals as a percentage of the vehicle group. Some entries give survivors of the animals treated and no T/C: the source holds a T/C of zero for them, seemingly a mark for toxic or unscored doses. Some survivor counts are full or nearly so, which does not show that the dose was tolerated: the source hardly ever lists a survival T/C far under the control, and the zero likely stands for such cases as well. Survivors were counted at the toxicity check, usually on the fifth day, unless a day is given; later deaths do not show. Schedules are NCI's codes, read here as Q, the interval in days (D) or hours (H), X, the number of doses. Some structures stand for samples that the source files as different forms (salt, stereo form or complex); doses refer to the form tested. Some entries were tested several times; the results are listed from low to high. For survival time, the PubChem record calls one and a half times the control and up active, and a quarter to a half above the control has no call in these data; cut-offs in other NCI protocols can differ. Some schedules carry Z or #; the key to these is not given. Some T/C values carry the count of animals alive at the toxicity check (mostly the fifth day); where none is given, no animal had died by that day.
System: L1210 leukemia ip in BDF1 mice, survival T/C
Assay: NCI In Vivo Anticancer Drug Screen. Data for tumor model L1210 Leukemia (intraperitoneal) in B6D2F1 (BDF1) mice
Settings: T/C endpoint: mean survival time, higher T/C = longer survival
[1] = dose: 400.0 mg/kg/injection, schedule: Q04DX003 (ip), vehicle: saline
[2] = dose: 400.0 mg/kg/injection, schedule: Q04DX002 (ip), vehicle: Klucel (hydroxypropylcellulose) (HPC)
[3] = dose: 300.0 mg/kg/injection, schedule: Q01DX001 (ip), vehicle: saline
[4] = dose: 80.0 mg/kg/injection, schedule: Q01DX009 (ip), vehicle: Klucel (hydroxypropylcellulose) (HPC)
[5] = dose: 200.0 mg/kg/injection, schedule: Q04DX003 (ip), vehicle: Klucel (hydroxypropylcellulose) (HPC)
[6] = dose: 100.0 mg/kg/injection, schedule: Q01DX005 (ip), vehicle: saline
[7] = dose: 200.0 mg/kg/injection, schedule: Q01DX005 (ip), vehicle: saline
[8] = dose: 200.0 mg/kg/injection, schedule: Q01DX009 (ip), vehicle: acetone
[9] = dose: 100.0 mg/kg/injection, schedule: Q01DX009 (ip), vehicle: Klucel (hydroxypropylcellulose) (HPC)
[10] = dose: 200.0 mg/kg/injection, schedule: Q01DX009 (ip), vehicle: Klucel (hydroxypropylcellulose) (HPC)
[11] = dose: 400.0 mg/kg/injection, schedule: Q01DX009 (ip), vehicle: Klucel (hydroxypropylcellulose) (HPC)

SMILES: O=C(O)c1ccccc1C(=O)c1ccc(CBr)cc1
- survivor count (dose: 100.0 mg/kg/injection, schedule: Q04DX003 (ip), vehicle: saline with Tween-80): 0 of 6
- survivor count (dose: 200.0 mg/kg/injection, schedule: Q04DX003 (ip), vehicle: saline with Tween-80): 0 of 6
- survivor count (dose: 400.0 mg/kg/injection, schedule: Q04DX003 (ip), vehicle: saline with Tween-80): 0 of 6

SMILES: CCc1nccc(=O)[nH]1
- survivor count [1]: 0 of 6 and 1 of 6

SMILES: Nc1ccc(Nc2ccccc2)cc1
- survivor count [2]: 0 of 3

SMILES: CC[C@H]1CN2CCc3cc(OC)c(OC)cc3[C@@H]2C[C@@H]1C[C@@H]1c2cc(OC)c(OC)cc2CCN1N=O
- survivor count (dose: 200.0 mg/kg/injection, schedule: Q04DX003 (ip), vehicle: saline): 6 of 6
- survivor count [1]: 0 of 6

SMILES: Cc1[nH]nc2c(=S)[nH]c(=O)[nH]c12
- survivor count [3]: 1 of 6

SMILES: CC(=O)NC(C)CC(C)C (stereo unspecified)
- survivor count [1]: 0 of 6

SMILES: C=C(C)C1C2OC(=O)C1C1(O)CC3OC34C(=O)OC2C14C (stereo unspecified)
- survivor count (dose: 5.0 mg/kg/injection, schedule: Q01DX001 (ip), vehicle: other): 1 of 6
- survivor count (dose: 9.5 mg/kg/injection, schedule: Q01DX001 (ip), vehicle: other): 0 of 6
- survivor count (dose: 19.0 mg/kg/injection, schedule: Q01DX001 (ip), vehicle: other): 0 of 6
- survivor count (dose: 38.0 mg/kg/injection, schedule: Q01DX001 (ip), vehicle: other): 0 of 6
- survivor count (dose: 75.0 mg/kg/injection, schedule: Q01DX001 (ip), vehicle: other): 0 of 6
- survivor count (dose: 150.0 mg/kg/injection, schedule: Q01DX001 (ip), vehicle: other): 0 of 6
- survivor count (dose: 300.0 mg/kg/injection, schedule: Q01DX001 (ip), vehicle: other): 0 of 6

SMILES: Clc1ccc(C2c3ccccc3C[n+]3ccccc32)cc1 (stereo unspecified)
- survivor count (dose: 55.0 mg/kg/injection, schedule: Q01DX009 (ip), vehicle: Klucel (hydroxypropylcellulose) (HPC)): 0 of 6
- survivor count [4]: 0 of 6
- survivor count (dose: 100.0 mg/kg/injection, schedule: Q04DX003 (ip), vehicle: Klucel (hydroxypropylcellulose) (HPC)): 0 of 6
- survivor count [5]: 0 of 6
- survivor count (dose: 400.0 mg/kg/injection, schedule: Q04DX003 (ip), vehicle: Klucel (hydroxypropylcellulose) (HPC)): 0 of 6

SMILES: O=c1[nH]cc(F)c(=O)n1C1OC(CO)C(O)C1O (stereo unspecified)
- T/C (dose: 0.75 mg/kg/injection, schedule: Q01DX009 (ip), vehicle: saline): 141 % of control
- T/C (dose: 1.56 mg/kg/injection, schedule: Q01DX005 (ip), vehicle: saline): 134 [5 of 6 alive] and 143 % of control
- T/C (dose: 3.0 mg/kg/injection, schedule: Q01DX009 (ip), vehicle: saline): 134 % of control [5 of 6 alive]
- T/C (dose: 3.12 mg/kg/injection, schedule: Q01DX005 (ip), vehicle: saline): 144 % of control
- survivor count (dose: 12.5 mg/kg/injection, schedule: Q01DX005 (ip), vehicle: saline): 6 of 6
- survivor count (dose: 25.0 mg/kg/injection, schedule: Q01DX005 (ip), vehicle: saline): 6 of 6
- survivor count (dose: 50.0 mg/kg/injection, schedule: Q01DX005 (ip), vehicle: saline): 6 of 6
- T/C [6]: 125 and 137 % of control
- survivor count [6]: 6 of 6
- T/C [7]: 131 and 148 % of control
- survivor count [7]: 6 of 6

SMILES: C/C(=N/N(C)C)c1ccc(F)cc1
- survivor count (dose: 200.0 mg/kg/injection, schedule: Q01DX009 (ip), vehicle: saline): 3 of 6

SMILES: BrP(NN=C1CCCCC1)(c1ccccc1)(c1ccccc1)c1ccccc1
- survivor count (dose: 75.0 mg/kg/injection, schedule: Q01DX001 (ip), vehicle: saline): 0 of 6
- survivor count (dose: 150.0 mg/kg/injection, schedule: Q01DX001 (ip), vehicle: saline): 0 of 6
- survivor count [3]: 0 of 6

SMILES: NC(=S)N/N=C\c1nccc2c(C(=O)O)cccc12
- survivor count (dose: 400.0 mg/kg/injection, schedule: Q04DX002 (ip), vehicle: saline): 3 of 3

SMILES: OC1OC(CN(CCCl)c2ccccc2)C(O)C(O)C1O (stereo unspecified)
- T/C (dose: 40.0 mg/kg/injection, schedule: Q01DX Z (ip), vehicle: methylcellulose (MC)): 126 % of control

SMILES: O=C(CN1CCOCC1)Nc1ccc(S(=O)(=O)c2ccc([N+](=O)[O-])cc2)cc1
- survivor count (dose: 300.0 mg/kg/injection, schedule: Q01DX001 (ip), vehicle: acetone): 0 of 6

SMILES: CC1=C[P+](C)(Cc2ccccc2)CC1 (stereo unspecified)
- survivor count (dose: 200.0 mg/kg/injection, schedule: Q01DX001 (ip), vehicle: saline): 0 of 6

SMILES: CCCN(CCC)CCSC(=S)NCCOC
- survivor count [8]: 3 of 6
- survivor count (dose: 400.0 mg/kg/injection, schedule: Q01DX001 (ip), vehicle: acetone): 0 of 6

SMILES: O=C1c2cccc3cc([N+](=O)[O-])cc(c23)C(=O)N1CCCN(CCO)CCO
- survivor count [9]: 3 of 6
- survivor count [10]: 2 of 6
- survivor count [11]: 0 of 6

SMILES: Cc1ccc2no[n+]([O-])c2c1
- survivor count [4]: 2 of 6
- survivor count [9]: 3 of 6
- survivor count [10]: 0 of 6
- survivor count [11]: 0 of 6

SMILES: CC(C)(C)C1=C(C(C)(C)C)CS(=O)(=O)C1
- survivor count (dose: 200.0 mg/kg/injection, schedule: Q01DX001 (ip), vehicle: saline with Tween-80): 1 of 3
- survivor count (dose: 400.0 mg/kg/injection, schedule: Q01DX001 (ip), vehicle: saline with Tween-80): 0 of 3

SMILES: O=COCC1CCC(NC(=O)N(CCCl)N=O)CC1 (stereo unspecified)
- T/C (dose: 40.0 mg/kg/injection, schedule: Q01DX001 (ip), vehicle: Klucel (hydroxypropylcellulose) (HPC)): 147 % of control
- survivor count (dose: 60.0 mg/kg/injection, schedule: Q01DX001 (ip), vehicle: Klucel (hydroxypropylcellulose) (HPC)): 5 of 9
- survivor count (dose: 90.0 mg/kg/injection, schedule: Q01DX001 (ip), vehicle: Klucel (hydroxypropylcellulose) (HPC)): 6 of 9
- survivor count (dose: 133.0 mg/kg/injection, schedule: Q01DX001 (ip), vehicle: Klucel (hydroxypropylcellulose) (HPC)): 7 of 10
- survivor count (dose: 200.0 mg/kg/injection, schedule: Q01DX001 (ip), vehicle: Klucel (hydroxypropylcellulose) (HPC)): 3 of 10
- survivor count (dose: 300.0 mg/kg/injection, schedule: Q01DX001 (ip), vehicle: Klucel (hydroxypropylcellulose) (HPC)): 1 of 10

SMILES: [Br][Bi]([Br])([c]1ccccc1)([c]1ccccc1)[c]1ccccc1
- survivor count (dose: 200.0 mg/kg/injection, schedule: Q04DX002 (ip), vehicle: Klucel (hydroxypropylcellulose) (HPC)): 2 of 3
- survivor count [2]: 2 of 3

SMILES: CCCCSC1CCCC1
- survivor count [8]: 2 of 6
- survivor count (dose: 400.0 mg/kg/injection, schedule: Q01DX001 (ip), vehicle: saline): 1 of 6

SMILES: CCCCNC(=O)C1CC2c3cc(Br)cc4[nH]c(Br)c(c34)CC2N(C)C1 (stereo unspecified)
- survivor count (dose: 50.0 mg/kg/injection, schedule: Q04DX003 (ip), vehicle: Klucel (hydroxypropylcellulose) (HPC)): 4 of 4
- survivor count [5]: 4 of 4

SMILES: CN(C)c1ccc(/C=N/Nc2nnc(N/N=C/c3ccc(N(C)C)cc3)c3ccccc23)cc1
- survivor count (dose: 100.0 mg/kg/injection, schedule: Q01DX001 (ip), vehicle: carboxymethylcellulose (CMC)): 2 of 4

SMILES: Cc1nc2[nH]cnc(=S)c2[nH]1
- survivor count (dose: 400.0 mg/kg/injection, schedule: Q01DX001 (ip), vehicle: other): 0 of 6

SMILES: COc1ccc(NC(=O)Nc2ccc(NC(C)=O)cc2)cc1
- survivor count (dose: 400.0 mg/kg/injection, schedule: Q01DX009 (ip), vehicle: saline with Tween-80): 6 of 6
